Some of the results follow. Hit calls seldom repeat between salt and free forms of one compound.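 In K562 cells expressing nanoluciferase-fused kinases, luminescence was recorded at 4 h intervals between 2 and 18 h, normalized as percent of control with DMSO at 100% and a positive control at 0%. A significant (2 sigma) signal drop marks a time point as decreased. The authors' rule for a hit is not shown and takes in more than the number of time points.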
Key:
Conditions in all cases: K562; 2-18 h
STK38 = STK38 (UniProt Q15208); test: kinase-Nluc reporter destabilization hit call (1 = scored as downregulated) (binary); higher = compound decreases kinase abundance
SYK = SYK (UniProt P43405); test: as above
TEC = TEC (UniProt P42680); test: as above
TYK2 = TYK2 (UniProt P29597); test: as above
ULK3 = ULK3 (UniProt Q6PHR2); test: as above
YES1 = YES1 (UniProt P07947); test: as above
ZAK = ZAK (UniProt Q9NYL2); test: as above
ZAP70 = ZAP70 (UniProt P43403); test: as above
ABL1 = ABL1 (UniProt P00519); test: number of time points (of 5) at which kinase-Nluc abundance scored as decreased, DMSO-normalised (count); higher = more persistent destabilization
AKT1 = AKT1 (UniProt P31749); test: as above

The chains behind the UniProt entries cited, without tags or fusion partners. Where a name states a change or a piece, a line headed by the entry shows the natural chain unless it says otherwise.
UniProt Q15208: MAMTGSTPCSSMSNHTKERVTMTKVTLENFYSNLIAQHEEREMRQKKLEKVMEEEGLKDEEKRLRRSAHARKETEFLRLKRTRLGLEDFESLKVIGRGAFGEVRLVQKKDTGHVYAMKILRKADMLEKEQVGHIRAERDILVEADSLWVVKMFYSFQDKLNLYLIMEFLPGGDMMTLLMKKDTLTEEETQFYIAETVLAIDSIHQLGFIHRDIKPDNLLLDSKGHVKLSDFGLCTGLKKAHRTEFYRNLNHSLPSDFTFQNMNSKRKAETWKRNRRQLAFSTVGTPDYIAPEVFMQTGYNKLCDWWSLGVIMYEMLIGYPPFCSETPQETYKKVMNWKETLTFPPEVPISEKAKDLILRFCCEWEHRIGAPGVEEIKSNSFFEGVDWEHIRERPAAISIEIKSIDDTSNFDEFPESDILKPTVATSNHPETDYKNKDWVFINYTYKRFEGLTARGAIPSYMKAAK
UniProt P42680: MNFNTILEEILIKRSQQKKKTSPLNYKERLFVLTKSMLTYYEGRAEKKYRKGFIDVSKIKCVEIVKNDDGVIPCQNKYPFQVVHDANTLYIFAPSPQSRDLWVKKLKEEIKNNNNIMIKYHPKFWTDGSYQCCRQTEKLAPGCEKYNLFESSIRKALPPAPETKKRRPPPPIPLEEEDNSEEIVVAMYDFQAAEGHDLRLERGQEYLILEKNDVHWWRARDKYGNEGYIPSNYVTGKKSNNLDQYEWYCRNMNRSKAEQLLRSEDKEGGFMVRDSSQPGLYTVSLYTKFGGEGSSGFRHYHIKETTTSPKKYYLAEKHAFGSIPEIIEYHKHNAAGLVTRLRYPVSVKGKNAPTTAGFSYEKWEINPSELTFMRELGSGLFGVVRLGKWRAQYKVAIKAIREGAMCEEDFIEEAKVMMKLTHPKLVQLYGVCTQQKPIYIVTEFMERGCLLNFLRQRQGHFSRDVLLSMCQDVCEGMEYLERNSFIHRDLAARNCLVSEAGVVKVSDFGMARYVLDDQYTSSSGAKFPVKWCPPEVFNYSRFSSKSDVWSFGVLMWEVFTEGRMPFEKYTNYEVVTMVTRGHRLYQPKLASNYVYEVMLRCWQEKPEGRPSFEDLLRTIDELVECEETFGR
UniProt P29597: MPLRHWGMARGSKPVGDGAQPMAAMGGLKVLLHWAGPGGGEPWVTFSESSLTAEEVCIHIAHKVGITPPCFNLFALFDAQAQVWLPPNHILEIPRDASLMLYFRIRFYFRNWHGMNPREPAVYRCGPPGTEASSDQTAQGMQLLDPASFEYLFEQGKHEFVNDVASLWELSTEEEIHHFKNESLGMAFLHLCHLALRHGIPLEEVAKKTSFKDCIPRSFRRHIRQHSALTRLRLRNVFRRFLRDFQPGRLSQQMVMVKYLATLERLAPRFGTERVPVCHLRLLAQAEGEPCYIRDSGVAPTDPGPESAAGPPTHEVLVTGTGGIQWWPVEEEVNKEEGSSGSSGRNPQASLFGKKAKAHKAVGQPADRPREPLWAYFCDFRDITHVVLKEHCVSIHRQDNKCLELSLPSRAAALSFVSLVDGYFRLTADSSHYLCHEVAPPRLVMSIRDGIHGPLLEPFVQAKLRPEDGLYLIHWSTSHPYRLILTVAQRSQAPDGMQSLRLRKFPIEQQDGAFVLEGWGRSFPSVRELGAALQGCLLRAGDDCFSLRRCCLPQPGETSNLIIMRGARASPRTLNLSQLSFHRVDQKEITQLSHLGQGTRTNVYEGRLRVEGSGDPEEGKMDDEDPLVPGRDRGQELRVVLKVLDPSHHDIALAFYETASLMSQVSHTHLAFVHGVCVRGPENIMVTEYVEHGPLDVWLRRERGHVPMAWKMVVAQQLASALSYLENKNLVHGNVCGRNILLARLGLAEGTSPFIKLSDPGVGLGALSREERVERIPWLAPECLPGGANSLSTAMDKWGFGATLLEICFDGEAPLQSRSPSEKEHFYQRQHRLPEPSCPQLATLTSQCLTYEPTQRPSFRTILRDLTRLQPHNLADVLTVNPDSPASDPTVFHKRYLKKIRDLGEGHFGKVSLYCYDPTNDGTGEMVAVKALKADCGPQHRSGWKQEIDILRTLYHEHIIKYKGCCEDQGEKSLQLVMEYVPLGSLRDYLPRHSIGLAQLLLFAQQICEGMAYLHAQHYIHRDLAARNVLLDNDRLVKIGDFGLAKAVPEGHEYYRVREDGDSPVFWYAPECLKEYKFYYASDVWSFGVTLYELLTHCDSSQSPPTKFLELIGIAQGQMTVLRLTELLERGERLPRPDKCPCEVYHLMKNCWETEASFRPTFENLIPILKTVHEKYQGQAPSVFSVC
UniProt Q6PHR2: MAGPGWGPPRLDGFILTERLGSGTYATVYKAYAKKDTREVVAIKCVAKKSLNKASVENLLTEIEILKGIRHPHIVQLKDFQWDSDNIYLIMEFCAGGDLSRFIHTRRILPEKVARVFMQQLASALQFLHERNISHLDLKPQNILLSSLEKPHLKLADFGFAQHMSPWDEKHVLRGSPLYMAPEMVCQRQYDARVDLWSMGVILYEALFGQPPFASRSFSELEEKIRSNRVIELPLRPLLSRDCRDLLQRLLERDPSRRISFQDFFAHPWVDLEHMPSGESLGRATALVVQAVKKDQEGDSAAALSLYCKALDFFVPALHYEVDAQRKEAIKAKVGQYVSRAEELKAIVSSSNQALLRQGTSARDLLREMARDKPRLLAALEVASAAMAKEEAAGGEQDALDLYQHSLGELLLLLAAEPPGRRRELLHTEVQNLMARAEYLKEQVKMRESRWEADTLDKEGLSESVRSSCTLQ
UniProt P07947, whole entry, looked up: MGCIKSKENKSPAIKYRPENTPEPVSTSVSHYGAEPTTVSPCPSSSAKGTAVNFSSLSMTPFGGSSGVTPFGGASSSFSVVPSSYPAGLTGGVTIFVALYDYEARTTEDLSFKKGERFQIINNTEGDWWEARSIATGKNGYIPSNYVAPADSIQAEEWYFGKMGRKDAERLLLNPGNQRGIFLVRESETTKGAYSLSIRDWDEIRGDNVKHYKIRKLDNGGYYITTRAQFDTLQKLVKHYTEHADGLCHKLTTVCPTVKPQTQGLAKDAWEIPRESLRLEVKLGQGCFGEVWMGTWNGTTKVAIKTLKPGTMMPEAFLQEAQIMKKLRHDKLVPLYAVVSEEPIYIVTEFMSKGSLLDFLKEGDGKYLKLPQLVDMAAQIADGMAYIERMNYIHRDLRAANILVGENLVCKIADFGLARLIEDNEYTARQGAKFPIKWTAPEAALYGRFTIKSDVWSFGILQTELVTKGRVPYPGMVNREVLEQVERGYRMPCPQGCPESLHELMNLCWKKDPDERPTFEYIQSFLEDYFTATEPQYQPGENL
UniProt P43403: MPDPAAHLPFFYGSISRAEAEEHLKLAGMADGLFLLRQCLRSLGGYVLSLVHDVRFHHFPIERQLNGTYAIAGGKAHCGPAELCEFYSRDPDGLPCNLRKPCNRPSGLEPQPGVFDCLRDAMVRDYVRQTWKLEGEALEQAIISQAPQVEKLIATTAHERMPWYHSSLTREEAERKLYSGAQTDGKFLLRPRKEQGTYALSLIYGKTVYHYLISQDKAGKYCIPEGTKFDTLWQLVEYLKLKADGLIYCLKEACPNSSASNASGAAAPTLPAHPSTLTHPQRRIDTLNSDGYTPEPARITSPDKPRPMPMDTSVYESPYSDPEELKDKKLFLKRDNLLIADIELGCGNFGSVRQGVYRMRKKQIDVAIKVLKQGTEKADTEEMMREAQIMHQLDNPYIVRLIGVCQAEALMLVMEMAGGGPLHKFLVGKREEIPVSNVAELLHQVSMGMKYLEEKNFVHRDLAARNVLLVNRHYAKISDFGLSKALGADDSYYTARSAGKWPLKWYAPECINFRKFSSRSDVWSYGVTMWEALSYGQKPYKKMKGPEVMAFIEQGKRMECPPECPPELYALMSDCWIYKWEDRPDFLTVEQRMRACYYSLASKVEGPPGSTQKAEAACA
UniProt P00519, whole entry: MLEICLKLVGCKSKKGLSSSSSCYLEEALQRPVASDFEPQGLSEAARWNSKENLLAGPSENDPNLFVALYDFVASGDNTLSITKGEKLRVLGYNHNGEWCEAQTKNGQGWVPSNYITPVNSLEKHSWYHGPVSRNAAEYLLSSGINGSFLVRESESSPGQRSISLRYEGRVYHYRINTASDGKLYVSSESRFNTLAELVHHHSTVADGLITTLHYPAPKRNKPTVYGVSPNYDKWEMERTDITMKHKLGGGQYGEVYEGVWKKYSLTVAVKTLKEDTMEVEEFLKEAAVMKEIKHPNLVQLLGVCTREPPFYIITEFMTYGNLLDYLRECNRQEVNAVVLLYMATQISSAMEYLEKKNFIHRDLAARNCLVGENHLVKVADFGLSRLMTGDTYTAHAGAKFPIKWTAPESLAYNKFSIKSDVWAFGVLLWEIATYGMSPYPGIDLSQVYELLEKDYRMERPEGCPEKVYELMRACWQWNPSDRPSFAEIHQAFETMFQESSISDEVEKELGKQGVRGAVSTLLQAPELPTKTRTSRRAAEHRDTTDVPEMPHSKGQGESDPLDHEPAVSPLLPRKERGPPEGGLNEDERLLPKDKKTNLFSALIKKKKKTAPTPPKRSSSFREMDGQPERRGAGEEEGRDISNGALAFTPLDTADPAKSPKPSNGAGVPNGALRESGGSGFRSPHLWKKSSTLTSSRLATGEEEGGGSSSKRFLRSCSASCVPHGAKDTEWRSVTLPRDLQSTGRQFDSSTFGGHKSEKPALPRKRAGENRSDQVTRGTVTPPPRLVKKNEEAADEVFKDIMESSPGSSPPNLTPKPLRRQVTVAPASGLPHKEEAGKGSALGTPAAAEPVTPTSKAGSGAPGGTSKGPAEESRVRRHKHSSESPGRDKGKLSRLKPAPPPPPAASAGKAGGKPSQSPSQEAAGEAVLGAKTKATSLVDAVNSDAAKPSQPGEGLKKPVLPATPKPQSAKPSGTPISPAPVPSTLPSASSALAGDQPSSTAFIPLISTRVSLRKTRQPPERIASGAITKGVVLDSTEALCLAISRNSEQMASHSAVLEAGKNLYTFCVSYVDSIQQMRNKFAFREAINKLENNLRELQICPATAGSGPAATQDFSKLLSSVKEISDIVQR
UniProt P31749: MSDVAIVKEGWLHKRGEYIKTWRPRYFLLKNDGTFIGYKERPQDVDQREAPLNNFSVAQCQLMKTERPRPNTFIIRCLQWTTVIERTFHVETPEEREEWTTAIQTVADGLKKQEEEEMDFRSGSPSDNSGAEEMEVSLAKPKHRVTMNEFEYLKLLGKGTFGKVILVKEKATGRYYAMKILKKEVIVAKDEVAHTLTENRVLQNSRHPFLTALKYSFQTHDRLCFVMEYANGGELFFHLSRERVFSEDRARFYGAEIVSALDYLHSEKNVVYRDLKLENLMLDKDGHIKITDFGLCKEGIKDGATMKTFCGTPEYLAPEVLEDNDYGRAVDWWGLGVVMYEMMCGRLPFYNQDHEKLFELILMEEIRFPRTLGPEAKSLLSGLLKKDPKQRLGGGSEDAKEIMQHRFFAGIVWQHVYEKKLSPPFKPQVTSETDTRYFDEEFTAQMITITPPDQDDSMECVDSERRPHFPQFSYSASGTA

Compound | kinase-Nluc reporter destabilization hit call (STK38) | kinase-Nluc reporter destabilization hit call (SYK) | kinase-Nluc reporter destabilization hit call (TEC) | kinase-Nluc reporter destabilization hit call (TYK2) | kinase-Nluc reporter destabilization hit call (ULK3) | kinase-Nluc reporter destabilization hit call (YES1) | kinase-Nluc reporter destabilization hit call (ZAK) | kinase-Nluc reporter destabilization hit call (ZAP70) | number of time points (ABL1) | number of time points (AKT1)
Nc1ncc(-c2cccc(N3CCNCC3)c2)cc1C(=O)Nc1ccncc1 [PKC-iota inhibitor 1] (10 µM) | inactive: 0 | inactive: 0 | inactive: 0 | inactive: 0 | inactive: 0 | inactive: 0 | inactive: 0 | inactive: 0 | 0 | 0
O=C(O)CCc1ccc(O)c(O)c1 [Dihydrocaffeic acid] (10 µM) | inactive: 0 | inactive: 0 | inactive: 0 | inactive: 0 | inactive: 0 | inactive: 0 | inactive: 0 | inactive: 0 | 0 | 0
COc1cc(F)c(F)c(Nc2ccc(I)cc2F)c1NS(=O)(=O)C1(C[C@H](O)CO)CC1 [Refametinib] (10 µM) | inactive: 0 | inactive: 0 | inactive: 0 | inactive: 0 | inactive: 0 | inactive: 0 | inactive: 0 | inactive: 0 | 1 | 0
COc1cc(S(C)(=O)=O)ccc1Nc1nc2ccc(-c3ccc(NC(=O)[C@H](C)c4ccc(F)cc4)cc3)cn2n1 [Empesertib] (10 µM) | inactive: 0 | inactive: 0 | inactive: 0 | inactive: 0 | inactive: 0 | inactive: 0 | inactive: 0 | inactive: 0 | 0 | 0
N#Cc1ccc2ncnc(NC3CCC(N4CCOCC4)CC3)c2c1 (stereo not given) (10 µM) | inactive: 0 | inactive: 0 | inactive: 0 | inactive: 0 | inactive: 0 | inactive: 0 | inactive: 0 | inactive: 0 | 0 | 0
CS(=O)(=O)c1ccc(-c2noc(C(F)(F)F)c2-c2ccccc2)cc1 (10 µM) | inactive: 0 | inactive: 0 | inactive: 0 | inactive: 0 | inactive: 0 | inactive: 0 | inactive: 0 | inactive: 0 | 0 | 0
O=C(/C=C/c1ccc(O[C@@H]2O[C@H](CO)[C@@H](O)[C@H](O)[C@H]2O[C@@H]2OC[C@](O)(CO)[C@H]2O)cc1)c1ccc(O)cc1O [Isoliquiritin apioside] (10 µM) | inactive: 0 | inactive: 0 | inactive: 0 | inactive: 0 | inactive: 0 | inactive: 0 | inactive: 0 | inactive: 0 | 0 | 0
CNC(=O)c1ccc(-c2cnc3cnc(C(=O)N(C)c4ccc(Cl)cc4)cn23)cc1 (2.5 µM) | inactive: 0 | inactive: 0 | inactive: 0 | inactive: 0 | inactive: 0 | inactive: 0 | inactive: 0 | inactive: 0 | 0 | 0
COc1cc2c[n+](C)c3c4cc5c(cc4ccc3c2cc1OC)OCO5 [Nitidine (chloride)] (2 µM) | inactive: 0 | inactive: 0 | inactive: 0 | inactive: 0 | inactive: 0 | inactive: 0 | inactive: 0 | inactive: 0 | 1 | 0
N#Cc1cccc(-c2c[nH]c3ncnc(N4CCOCC4)c23)c1 (10 µM) | inactive: 0 | inactive: 0 | inactive: 0 | inactive: 0 | inactive: 0 | inactive: 0 | inactive: 0 | inactive: 0 | 0 | 0
O=C(O)c1cc(O)ccc1O [2,5-Dihydroxybenzoic acid] (10 µM) | inactive: 0 | inactive: 0 | inactive: 0 | inactive: 0 | inactive: 0 | inactive: 0 | inactive: 0 | inactive: 0 | 0 | 0
O=C(Nc1cc(Oc2cc(F)c(NC(=O)C3(C(=O)Nc4ccc(F)cc4)CC3)cc2F)ccn1)C1CC1 [Altiratinib] (10 µM) | inactive: 0 | inactive: 0 | inactive: 0 | inactive: 0 | inactive: 0 | inactive: 0 | inactive: 0 | inactive: 0 | 0 | 0
CC1CN(C(=O)Nc2ccc(Cl)c(Cl)c2)C(=Nc2ccc(F)cc2)S1 (stereo not given) (10 µM) | inactive: 0 | inactive: 0 | inactive: 0 | inactive: 0 | inactive: 0 | inactive: 0 | inactive: 0 | inactive: 0 | 0 | 0
